# Test results published in the supplement of paper PMC8728848.
# The other results are listed elsewhere or left out.
# B1: EUL D1A (Oryza sativa) (protein)
# chain: MFGFGHHHNQAPAAPSDPNQIFKIFCRANENYCLTVRDSAVVLAPVNPKDEHQHWFKDMRFSTKVKDGEGMPAFALVNKATGLAVKHSLGQSHPVKLVPFNPEYEDASVLWTESKDVGKGFRCIRMVNNTRLNLDAFHGDKDHGGVRDGTTVVLWEWCKGDNQSWKILPWGPEAHSSSPGAATACTIGGVPVHTVRVFSAAGEDYCLTVRNGTACLAPKNPRDDYQHWIKDMRHSNKIRDEEGYPAFALVNKVTGEAIKHSTGQGHPVKLVPYNPEYQDESVLWTESKDVGKGFRCIRMVNNIYLNFDAFHGDKDHGGIHDGTEIVLWKWCEGDNQRWKILPWILEQKLISEEDLNSAVDHHHHHH
# How the values were obtained:
# Assay in all cases: glycan array binding signal (z-score within array); higher = stronger binding
# Settings in all cases: glycan notation: IUPAC condensed, linker removed
# Gal6S(b1-4)Glc6S = biological target: Gal6S(b1-4)Glc6S
# Outline: (§1)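 The binding signal is a Z-score computed within each array. Data were drawn from 3228 arrays in the Consortium for Functional Glycomics database, restricted to those with a known protein sequence. Scores were averaged over arrays of the same protein sequence at different concentrations or buffers, and over linkers, and negative values can be taken as non-binding.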
# Gal6S(b1-4)GlcNAc = biological target: Gal6S(b1-4)GlcNAc
# Outline: as §1
# Gal6S(b1-4)GlcNAc6S = biological target: Gal6S(b1-4)GlcNAc6S
# Outline: as §1
# GalNAc(a1-3)Gal = biological target: GalNAc(a1-3)Gal
# Outline: as §1
# GalNAc(a1-3)GalNAc = biological target: GalNAc(a1-3)GalNAc
# Outline: as §1
# [1] = biological target: GalNAc(a1-3)GalNAc(b1-3)Gal(a1-4)Gal(b1-4)Glc
# Outline: as §1
# [2] = biological target: GalNAc(a1-3)GalNAc(b1-3)Gal(a1-4)Gal(b1-4)GlcNAc
# Outline: as §1
# GalNAc(b1-3)Gal = biological target: GalNAc(b1-3)Gal
# Outline: as §1
# [3] = biological target: GalNAc(b1-3)Gal(a1-4)Gal(b1-4)GlcNAc
# Outline: as §1
# [4] = biological target: GalNAc(b1-3)Gal(a1-4)Gal(b1-4)GlcNAc(b1-3)Gal(b1-4)Glc
# Outline: as §1
# [5] = biological target: GalNAc(b1-3)Gal(a1-6)Gal(b1-4)Glc
# Outline: as §1
# GalNAc(b1-3)GalNAc = biological target: GalNAc(b1-3)GalNAc
# Outline: as §1
# GalNAc(b1-3)GlcNAc = biological target: GalNAc(b1-3)GlcNAc
# Outline: as §1
# GalNAc(b1-4)Gal(b1-4)Glc = biological target: GalNAc(b1-4)Gal(b1-4)Glc
# Outline: as §1
# GalNAc(b1-4)GlcNAc = biological target: GalNAc(b1-4)GlcNAc
# Outline: as §1
# [6] = biological target: GalNAc(b1-4)GlcNAc(b1-2)Man
# Outline: as §1
# [7] = biological target: GalNAc(b1-4)GlcNAc(b1-2)Man(a1-3)[GalNAc(b1-4)GlcNAc(b1-2)Man(a1-6)]Man(b1-4)GlcNAc(b1-4)GlcNAc
# Outline: as §1
# [8] = biological target: GalNAc(b1-4)GlcNAc(b1-3)GalNAc(b1-4)GlcNAc
# Outline: as §1
# GalNAc(b1-4)GlcNAc6S = biological target: GalNAc(b1-4)GlcNAc6S
# Outline: as §1
# GalNAc(b1-6)GalNAc = biological target: GalNAc(b1-6)GalNAc
# Outline: as §1
# GalNAc3S(b1-4)GlcNAc = biological target: GalNAc3S(b1-4)GlcNAc
# Outline: as §1
# GalNAc3S(b1-4)GlcNAc3S = biological target: GalNAc3S(b1-4)GlcNAc3S
# Outline: as §1
# [9] = biological target: GalNAc3S(b1-4)[Fuc(a1-3)]GlcNAc
# Outline: as §1
# GalNAc4S6S(b1-4)GlcNAc = biological target: GalNAc4S6S(b1-4)GlcNAc
# Outline: as §1
# GalNAc6S(b1-4)GlcNAc = biological target: GalNAc6S(b1-4)GlcNAc
# Outline: as §1
# Glc(a1-4)Glc = biological target: Glc(a1-4)Glc
# Outline: as §1
# [10] = biological target: Glc(a1-4)Glc(a1-4)Glc(a1-4)Glc
# Outline: as §1
# Glc(a1-6)Glc(a1-6)Glc = biological target: Glc(a1-6)Glc(a1-6)Glc
# Outline: as §1
# [11] = biological target: Glc(a1-6)Glc(a1-6)Glc(a1-6)Glc
# Outline: as §1
# Glc(b1-4)Glc = biological target: Glc(b1-4)Glc
# Outline: as §1
# Glc(b1-6)Glc = biological target: Glc(b1-6)Glc
# Outline: as §1
# GlcA(b1-3)Gal = biological target: GlcA(b1-3)Gal
# Outline: as §1
# GlcA(b1-3)GlcNAc = biological target: GlcA(b1-3)GlcNAc
# Outline: as §1
# GlcA(b1-6)Gal = biological target: GlcA(b1-6)Gal
# Outline: as §1
# [12] = biological target: GlcA3S(b1-3)Gal(b1-4)GlcNAc(b1-2)Man
# Outline: as §1
# [13] = biological target: GlcA3S(b1-3)Gal(b1-4)GlcNAc(b1-3)Gal(b1-4)Glc
# Outline: as §1
# [14] = biological target: GlcNAc(a1-3)Gal(b1-4)GlcNAc
# Outline: as §1
binder,measurement,setting,value
B1,glycan array binding signal (z-score),Gal6S(b1-4)Glc6S,1.42
same,glycan array binding signal (z-score),Gal6S(b1-4)GlcNAc,-0.407
same,glycan array binding signal (z-score),Gal6S(b1-4)GlcNAc6S,-0.063
same,glycan array binding signal (z-score),GalNAc(a1-3)Gal,-0.556
same,glycan array binding signal (z-score),GalNAc(a1-3)GalNAc,0.134
same,glycan array binding signal (z-score),[1],-0.009
same,glycan array binding signal (z-score),[2],-0.153
same,glycan array binding signal (z-score),GalNAc(b1-3)Gal,-0.537
same,glycan array binding signal (z-score),[3],1.76
same,glycan array binding signal (z-score),[4],-0.333
same,glycan array binding signal (z-score),[5],0.714
same,glycan array binding signal (z-score),GalNAc(b1-3)GalNAc,-0.061
same,glycan array binding signal (z-score),GalNAc(b1-3)GlcNAc,0.832
same,glycan array binding signal (z-score),GalNAc(b1-4)Gal(b1-4)Glc,-1
same,glycan array binding signal (z-score),GalNAc(b1-4)GlcNAc,-0.309
same,glycan array binding signal (z-score),[6],-1.85
same,glycan array binding signal (z-score),[7],0.462
same,glycan array binding signal (z-score),[8],-1.12
same,glycan array binding signal (z-score),GalNAc(b1-4)GlcNAc6S,-0.373
same,glycan array binding signal (z-score),GalNAc(b1-6)GalNAc,-0.629
same,glycan array binding signal (z-score),GalNAc3S(b1-4)GlcNAc,-0.956
same,glycan array binding signal (z-score),GalNAc3S(b1-4)GlcNAc3S,0.381
same,glycan array binding signal (z-score),[9],1.47
same,glycan array binding signal (z-score),GalNAc4S6S(b1-4)GlcNAc,0.331
same,glycan array binding signal (z-score),GalNAc6S(b1-4)GlcNAc,-1.44
same,glycan array binding signal (z-score),Glc(a1-4)Glc,0.067
same,glycan array binding signal (z-score),[10],-0.154
same,glycan array binding signal (z-score),Glc(a1-6)Glc(a1-6)Glc,-0.086
same,glycan array binding signal (z-score),[11],-0.093
same,glycan array binding signal (z-score),Glc(b1-4)Glc,-1.29
same,glycan array binding signal (z-score),Glc(b1-6)Glc,-0.654
same,glycan array binding signal (z-score),GlcA(b1-3)Gal,-0.856
same,glycan array binding signal (z-score),GlcA(b1-3)GlcNAc,1.95
same,glycan array binding signal (z-score),GlcA(b1-6)Gal,0.1
same,glycan array binding signal (z-score),[12],0.196
same,glycan array binding signal (z-score),[13],-1.27
same,glycan array binding signal (z-score),[14],-0.259

# Looked up one by one from the list above (3):
binder,measurement,setting,value
B1,glycan array binding signal (z-score),[9],1.47
same,glycan array binding signal (z-score),GalNAc(a1-3)GalNAc,0.134
same,glycan array binding signal (z-score),GalNAc4S6S(b1-4)GlcNAc,0.331
